Read-outs that look alike come from different tables or passages of the source. These are yes or no findings as the source states them, for the method shown. Binding seen in cells or lysates may run through a third protein. Some results given as binding are weak or reduced against the parent protein; the word gives no strength.

Chains of the proteins cited; added tags and fusions are not shown.
UniProt Q9H6L5: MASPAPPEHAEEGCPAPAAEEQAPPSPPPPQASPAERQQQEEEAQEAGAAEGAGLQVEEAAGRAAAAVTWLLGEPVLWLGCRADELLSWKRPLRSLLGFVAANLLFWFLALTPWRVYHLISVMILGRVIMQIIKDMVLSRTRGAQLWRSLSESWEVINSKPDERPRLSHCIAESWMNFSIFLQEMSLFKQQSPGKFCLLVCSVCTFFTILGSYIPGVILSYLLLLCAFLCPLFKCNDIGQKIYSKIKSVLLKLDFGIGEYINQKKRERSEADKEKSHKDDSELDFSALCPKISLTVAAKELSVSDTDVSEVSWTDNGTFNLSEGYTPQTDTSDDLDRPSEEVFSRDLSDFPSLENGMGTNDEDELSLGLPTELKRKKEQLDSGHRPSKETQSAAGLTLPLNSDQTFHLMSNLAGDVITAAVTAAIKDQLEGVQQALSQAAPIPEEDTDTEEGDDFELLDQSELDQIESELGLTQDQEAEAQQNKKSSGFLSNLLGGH

Consider one molecule from article doi:10.1101/2025.07.08.663682.

The target in test [1] is FAM134B-V5 (UniProt Q9H6L5). Nature of the test: co-IP.
Test [2] addresses FAM134B-V5 (UniProt Q9H6L5). Nature of the test: co-IP. This is another data set of the same source.

B1: Calnexin (CNX) (protein, UniProt P27824 21-592)
chain: HDGHDDDVIDIEDDLDDVIEEVEDSKPDTTAPPSSPKVTYKAPVPTGEVYFADSFDRGTLSGWILSKAKKDDTDDEIAKYDGKWEVEEMKESKLPGDKGLVLMSRAKHHAISAKLNKPFLFDTKPLIVQYEVNFQNGIECGGAYVKLLSKTPELNLDQFHDKTPYTIMFGPDKCGEDYKLHFIFRHKNPKTGIYEEKHAKRPDADLKTYFTDKKTHLYTLILNPDNSFEILVDQSVVNSGNLLNDMTPPVNPSREIEDPEDRKPEDWDERPKIPDPEAVKPDDWDEDAPAKIPDEEATKPEGWLDDEPEYVPDPDAEKPEDWDEDMDGEWEAPQIANPRCESAPGCGVWQRPVIDNPNYKGKWKPPMIDNPSYQGIWKPRKIPNPDFFEDLEPFRMTPFSAIGLELWSMTSDIFFDNFIICADRRIVDDWANDGWGLKKAADGAAEPGVVGQMIEAAEERPWLWVVYILTVALPVFLVILFCCSGKKQTSGMEYKKTDAPQPDVKEEEEEKEEEKDKGDEEEEGEEKLEEKQKSDAEEDGGTVSQEEEDRKPKAEEDEILNRSPRNRKPRRE
Consider B1, for which the binding entry with FAM134B-V5 [1] and with FAM134B-V5 [2] was “binds” in each case.
